From doi:10.1101/2021.10.14.464355
Results are given in words; binding and its absence hold for the method and conditions named. Binding seen in cells or lysates may run through a third protein.

Amino acid sequences for entries named in this document (tags omitted). A change or cut given only in a name is not applied to a line headed by its entry.
UniProt Q9NQB0: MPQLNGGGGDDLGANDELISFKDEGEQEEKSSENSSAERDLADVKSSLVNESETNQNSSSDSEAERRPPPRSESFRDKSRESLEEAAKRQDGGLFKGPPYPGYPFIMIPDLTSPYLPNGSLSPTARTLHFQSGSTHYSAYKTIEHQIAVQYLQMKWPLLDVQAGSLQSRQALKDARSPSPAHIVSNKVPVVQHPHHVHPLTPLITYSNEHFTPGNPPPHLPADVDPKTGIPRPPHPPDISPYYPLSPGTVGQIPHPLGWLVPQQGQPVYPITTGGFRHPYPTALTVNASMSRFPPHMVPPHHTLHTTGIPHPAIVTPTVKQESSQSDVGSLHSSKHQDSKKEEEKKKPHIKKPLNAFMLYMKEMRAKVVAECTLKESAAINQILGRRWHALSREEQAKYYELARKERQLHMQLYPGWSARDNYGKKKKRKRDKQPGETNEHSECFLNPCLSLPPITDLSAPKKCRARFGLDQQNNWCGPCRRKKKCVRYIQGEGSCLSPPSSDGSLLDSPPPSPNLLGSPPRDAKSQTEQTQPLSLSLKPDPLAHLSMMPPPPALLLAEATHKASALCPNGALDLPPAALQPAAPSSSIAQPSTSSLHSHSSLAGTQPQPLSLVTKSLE
UniProt P40337: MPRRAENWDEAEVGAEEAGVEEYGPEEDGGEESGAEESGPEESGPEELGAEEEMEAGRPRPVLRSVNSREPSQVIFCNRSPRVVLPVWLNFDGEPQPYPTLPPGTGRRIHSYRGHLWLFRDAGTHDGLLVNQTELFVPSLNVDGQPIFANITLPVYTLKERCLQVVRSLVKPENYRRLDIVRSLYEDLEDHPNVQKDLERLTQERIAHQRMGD

Target: TCF7L2Δ(63-410) (UniProt Q9NQB0)
Experiment: co-IP

binding: no binding
Substance: pVHL (in the co-IP that maps the TCF7L2 domains) (from UniProt P40337 1-213)
